According to PMC8755794:
Results are given in words; binding and its absence hold for the method and conditions named. In cells and extracts the contact can be indirect. Some results given as binding are weak or reduced against the parent protein; the word gives no strength.

Sequences of proteins named here, by UniProt entry; tags and fusion partners are left off.
UniProt P42338: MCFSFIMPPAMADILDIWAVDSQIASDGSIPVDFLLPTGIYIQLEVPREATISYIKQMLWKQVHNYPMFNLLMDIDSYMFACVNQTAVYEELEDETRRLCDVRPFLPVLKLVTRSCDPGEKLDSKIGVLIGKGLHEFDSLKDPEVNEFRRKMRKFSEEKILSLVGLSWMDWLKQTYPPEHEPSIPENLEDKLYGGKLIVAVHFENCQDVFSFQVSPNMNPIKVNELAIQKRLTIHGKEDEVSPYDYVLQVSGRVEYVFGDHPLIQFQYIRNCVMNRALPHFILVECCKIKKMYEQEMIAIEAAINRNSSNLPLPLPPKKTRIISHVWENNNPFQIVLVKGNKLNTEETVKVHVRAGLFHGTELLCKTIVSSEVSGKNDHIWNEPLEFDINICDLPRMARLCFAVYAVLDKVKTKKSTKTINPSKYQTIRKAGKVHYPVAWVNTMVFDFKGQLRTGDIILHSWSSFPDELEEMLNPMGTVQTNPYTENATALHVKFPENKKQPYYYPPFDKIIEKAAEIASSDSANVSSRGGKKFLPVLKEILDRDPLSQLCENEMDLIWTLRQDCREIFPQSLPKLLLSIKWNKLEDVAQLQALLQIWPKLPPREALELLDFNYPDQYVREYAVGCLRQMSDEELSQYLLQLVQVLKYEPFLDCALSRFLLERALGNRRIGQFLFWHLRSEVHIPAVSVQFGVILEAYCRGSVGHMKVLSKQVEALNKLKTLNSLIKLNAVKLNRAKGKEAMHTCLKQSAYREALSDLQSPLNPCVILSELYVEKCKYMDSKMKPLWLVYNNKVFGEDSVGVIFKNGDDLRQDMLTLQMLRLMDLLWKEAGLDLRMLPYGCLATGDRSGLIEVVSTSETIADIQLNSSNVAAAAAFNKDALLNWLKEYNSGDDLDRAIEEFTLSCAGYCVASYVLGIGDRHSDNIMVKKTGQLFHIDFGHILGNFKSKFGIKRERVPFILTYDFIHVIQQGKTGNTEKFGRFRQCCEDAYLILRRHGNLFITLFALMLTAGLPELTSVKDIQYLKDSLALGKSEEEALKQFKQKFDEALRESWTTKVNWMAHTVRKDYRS
UniProt P42336: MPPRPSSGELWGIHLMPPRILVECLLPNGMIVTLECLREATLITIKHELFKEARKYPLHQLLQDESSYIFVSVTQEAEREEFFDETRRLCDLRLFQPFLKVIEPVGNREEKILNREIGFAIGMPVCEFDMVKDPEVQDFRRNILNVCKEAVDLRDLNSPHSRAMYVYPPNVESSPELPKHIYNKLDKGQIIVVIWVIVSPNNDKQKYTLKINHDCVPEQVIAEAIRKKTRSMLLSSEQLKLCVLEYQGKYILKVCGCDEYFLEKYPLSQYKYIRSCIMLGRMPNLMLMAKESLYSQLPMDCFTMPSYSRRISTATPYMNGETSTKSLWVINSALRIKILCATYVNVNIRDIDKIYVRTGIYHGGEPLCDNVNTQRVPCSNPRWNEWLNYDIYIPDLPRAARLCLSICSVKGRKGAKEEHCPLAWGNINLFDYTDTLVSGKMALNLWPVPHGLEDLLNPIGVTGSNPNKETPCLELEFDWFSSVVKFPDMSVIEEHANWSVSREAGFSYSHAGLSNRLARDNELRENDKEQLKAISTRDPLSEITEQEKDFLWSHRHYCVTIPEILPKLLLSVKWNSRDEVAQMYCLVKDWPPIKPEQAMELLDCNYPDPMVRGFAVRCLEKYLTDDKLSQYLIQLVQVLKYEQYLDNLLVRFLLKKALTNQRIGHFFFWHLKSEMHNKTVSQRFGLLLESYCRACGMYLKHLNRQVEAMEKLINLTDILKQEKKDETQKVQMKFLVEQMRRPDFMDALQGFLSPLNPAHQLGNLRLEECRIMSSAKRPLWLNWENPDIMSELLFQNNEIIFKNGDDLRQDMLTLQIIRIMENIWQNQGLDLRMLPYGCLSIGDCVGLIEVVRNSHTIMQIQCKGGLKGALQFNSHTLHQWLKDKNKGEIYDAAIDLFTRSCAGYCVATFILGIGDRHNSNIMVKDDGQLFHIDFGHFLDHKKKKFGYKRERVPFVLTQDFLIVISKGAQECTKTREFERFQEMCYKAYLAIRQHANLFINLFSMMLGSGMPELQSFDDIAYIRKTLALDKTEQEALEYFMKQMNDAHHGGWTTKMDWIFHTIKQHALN
UniProt P17302: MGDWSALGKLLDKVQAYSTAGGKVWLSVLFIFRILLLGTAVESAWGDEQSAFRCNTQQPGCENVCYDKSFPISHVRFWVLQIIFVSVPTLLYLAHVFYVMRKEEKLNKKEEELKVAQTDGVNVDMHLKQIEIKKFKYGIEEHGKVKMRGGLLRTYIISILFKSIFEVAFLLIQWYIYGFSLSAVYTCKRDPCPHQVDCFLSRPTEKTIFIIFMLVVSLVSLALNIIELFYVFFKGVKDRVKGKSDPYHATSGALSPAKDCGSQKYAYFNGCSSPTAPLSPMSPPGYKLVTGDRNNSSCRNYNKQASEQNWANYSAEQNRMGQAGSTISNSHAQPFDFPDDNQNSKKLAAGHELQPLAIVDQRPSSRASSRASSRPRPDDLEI

How the values were obtained:
Experiment in all cases: co-IP; endogenous proteins in U87MG cell lysate; lysis buffer 20 mM HEPES pH 6.8, 140 mM NaCl, 2.5 mM MgCl2, 2.5 mM CaCl2, 1% NP40, 0.5% sodium deoxycholate; primary antibodies overnight at 4 °C, then Protein G Dynabeads; rabbit IgG as control
[1] = molecular target: T1, PI3K catalytic subunit δ (human (endogenous in U87MG)) (UniProt O00329)
T1 sequence: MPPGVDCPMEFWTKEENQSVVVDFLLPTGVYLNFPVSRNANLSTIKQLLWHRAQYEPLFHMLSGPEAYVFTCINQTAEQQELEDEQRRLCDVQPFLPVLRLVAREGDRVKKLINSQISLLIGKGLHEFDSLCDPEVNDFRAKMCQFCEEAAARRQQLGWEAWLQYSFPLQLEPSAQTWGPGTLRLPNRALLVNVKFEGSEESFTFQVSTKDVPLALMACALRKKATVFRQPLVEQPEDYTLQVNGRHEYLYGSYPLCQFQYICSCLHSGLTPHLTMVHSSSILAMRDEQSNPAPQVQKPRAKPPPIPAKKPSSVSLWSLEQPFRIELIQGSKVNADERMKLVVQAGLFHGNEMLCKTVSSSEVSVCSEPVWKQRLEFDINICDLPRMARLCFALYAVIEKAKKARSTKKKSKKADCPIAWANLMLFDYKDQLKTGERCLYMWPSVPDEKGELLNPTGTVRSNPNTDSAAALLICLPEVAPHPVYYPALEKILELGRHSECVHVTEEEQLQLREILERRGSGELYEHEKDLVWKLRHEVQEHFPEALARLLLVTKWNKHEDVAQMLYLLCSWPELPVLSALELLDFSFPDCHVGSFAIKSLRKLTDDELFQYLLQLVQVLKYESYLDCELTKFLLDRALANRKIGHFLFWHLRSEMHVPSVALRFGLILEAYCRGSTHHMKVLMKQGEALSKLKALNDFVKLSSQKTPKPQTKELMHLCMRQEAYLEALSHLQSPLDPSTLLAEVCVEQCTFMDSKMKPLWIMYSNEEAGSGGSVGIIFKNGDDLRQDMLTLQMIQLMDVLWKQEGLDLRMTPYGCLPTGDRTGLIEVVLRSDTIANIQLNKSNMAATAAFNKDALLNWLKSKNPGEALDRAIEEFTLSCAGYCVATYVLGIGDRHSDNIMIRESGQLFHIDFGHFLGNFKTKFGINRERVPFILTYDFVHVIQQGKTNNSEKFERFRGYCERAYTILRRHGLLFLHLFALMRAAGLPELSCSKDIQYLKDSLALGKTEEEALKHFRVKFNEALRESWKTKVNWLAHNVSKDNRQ

[2] = molecular target: PI3K catalytic subunit β (human (endogenous in U87MG)) (UniProt P42338)
[3] = molecular target: PI3K catalytic subunit α (human (endogenous in U87MG)) (UniProt P42336)

- binding [1]: no binding
- binding [2]: binds
- binding [3]: no binding
Substance: connexin 43 (from UniProt P17302 1-382)
